Data published in patent publication US4496545A, “Nonapeptide for treating addictive drug withdrawal conditions” (priority 1981, dated 1985).
Like-named read-outs stand apart in the source and are kept apart here. Part of at least one peptide drawing is inferred or uncertain, most often the ends. Where no end group is shown, it is not given here.

What was measured:
[1] = test system: alcoholic or methadone- or heroin-dependent patients
morphine-dependent mouse = assay: Inhibition of the naloxone-triggered withdrawal leaps of the morphine-dependent mouse; format: in vivo
Text: An opiate-dependent organism for example reacts the same irrespective of species on the sudden withdrawal of the opiate (e.g. morphine) with withdrawal symptoms, i.e. addictive drug withdrawal conditions. In the course of this occurrence central and peripheral symptoms appear, of which the most striking in the mouse is a series of violent leaps (the so-called "jumping"). The number of leaps per time interval is proportional to the intensity of the withdrawal effect and their enumeration enables the incident to be evaluated quantitatively.
In order to produce the dependence a compressed tablet, which contained 75 mg of morphine (base) and which progressively dissolved with continuous liberation of the morphine, was implanted under the dorsal skin of male mice (weight about 22 g). On the third day after the implantation the morphine antagonist naloxone in a dosage of 0.1 mg/kg was administered subcutaneously to the animals in order to trigger off the withdrawal leaps.
After the injection, the leaps of each individual animal were counted for 20 minutes. The group median value was calculated from the total leaps of 8 animals, which formed a group. As the positive control the animals of one group received 30 mg/kg of morphine subcutaneously 30 minutes before administration of the antagonist. Two to four groups received 10 ml/kg of physiological sodium chloride solution (negative control) 2 hours before the naloxone administration intravenously. The remaining groups received DSIP in various dosages (0.01, 0.015, 0.03, 0.06 and 0.1 mg/kg, intravenously and 0.03, 0.1 and 0.3 mg/kg, subcutaneously) 2 hours before the naloxone administration. The dosage median values and, respectively, control median values were calculated from all individual values per dosage and, respectively, the positive and negative controls.

[2] = abused drug: Alcohol with delirium tremens

Sequence: WAGGDASGE [DSIP, Trp-Ala-Gly-Gly-Asp-Ala-Ser-Gly-Glu]
- Effect of DSIP (1 mg per infusion): Not present ([1]; Total number of patients (56)): 13 patients
- Effect of DSIP (1 mg per infusion): Present ([1]; Total number of patients (56)): 38 patients
- Effect of DSIP (1 mg per infusion): Uncertain ([1]; Total number of patients (56)): 5 patients
- Effect of DSIP (1 mg per infusion): Not present [1, 2]: 1 patients
- Effect of DSIP (1 mg per infusion): Present [1, 2]: 6 patients
- Effect of DSIP (1 mg per infusion): Uncertain [1, 2]: 1 patients
- Effect of DSIP (1 mg per infusion): Not present ([1]; abused drug: Alcohol without delirium tremens): 3 patients
- Effect of DSIP (1 mg per infusion): Present ([1]; abused drug: Alcohol without delirium tremens, up to 4 i.v. infusions daily): 14 patients
- Effect of DSIP (1 mg per infusion): Present ([1]; abused drug: Heroin): 8 patients
- Effect of DSIP (1 mg per infusion): Uncertain ([1]; abused drug: Heroin): 2 patients
- Effect of DSIP (1 mg per infusion): Not present ([1]; abused drug: Heroin (16 cases)): 6 patients
- Effect of DSIP (1 mg per infusion): Present ([1]; abused drug: Methadone): 10 patients
- Effect of DSIP (1 mg per infusion): Uncertain ([1]; abused drug: Methadone): 2 patients
- Effect of DSIP (1 mg per infusion): Not present ([1]; abused drug: Methadone (15 cases)): 3 patients
- Delirium tremens did not occur, contrary to the clinical prognosis before the beginning of the treatment ([1]; alcoholic patients without delirium tremens, 17 cases): 14 cases
- Delirium tremens terminated by the treatment ([1]; of 8 cases, alcoholic patients in delirium tremens on admission): 6 cases
- DSIP ineffective ([1]; of the 25 cases of alcohol dependence): 4 cases
- % of negative control (morphine-dependent mouse; 0.01 mg/kg i.v. 2 hours before naloxone): 93%
- % of negative control (morphine-dependent mouse; 0.015 mg/kg i.v. 2 hours before naloxone): 79%
- % of negative control (morphine-dependent mouse; 0.03 mg/kg i.v. 2 hours before naloxone): 66%
- % of negative control (morphine-dependent mouse; 0.03 mg/kg s.c. 2 hours before naloxone): 103%
- % of negative control (morphine-dependent mouse; 0.06 mg/kg i.v. 2 hours before naloxone): 93%
- % of negative control (morphine-dependent mouse; 0.1 mg/kg i.v. 2 hours before naloxone): 100%
- % of negative control (morphine-dependent mouse; 0.1 mg/kg s.c. 2 hours before naloxone): 86%
- % of negative control (morphine-dependent mouse; 0.3 mg/kg s.c. 2 hours before naloxone): 54%
- Leaps/animal (median) (morphine-dependent mouse; 0.3 mg/kg s.c. 2 hours before naloxone, leaps counted for 20 minutes): 86 Leaps/animal
